In paper PMC12548414:
Screen size: about 1,600 compounds; about 20 (1%) showed an effect of 50% or more. Some of the results follow.

System: T1, E. coli pLC1021 (luc-trpAt trans-translation reporter)
T1 construct: pLC1021 luc-trpAt reporter strain
Parameters: species or system Escherichia coli pLC1021; luc-trpAt non-stop luciferase reporter; luminescence rises when trans-translation is inhibited; normalized to KKL-35 and DMSO
Conditions: reporter signal, KKL-35 = 100%; rise means trans-translation inhibition; 2 h, 20 µM
How it was run: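 Cells carrying the non-stop luc-trpAt reporter were exposed to 20 µM compound for 2 h at room temperature, then Bright-Glo was added and luminescence read at 560 nm after 10 min. Signals were normalised per plate to DMSO and 20 µM KKL-35 wells. Hits: activity one SD above the median; ≥2 biological repeats averaged.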

SMILES | % activation
CC(C)(C)c1cc(Cl)ccc1OCCn1ccnc1 [KKL-1304] | 11%
O=C(Nc1ncc(Cc2ccccc2F)s1)c1ccccc1Cn1ccnc1 [KKL-0940] | 0%
CC(C)COc1ccc(-c2nnn(CC(=O)Nc3ccc4c(c3)OCCO4)n2)cc1 [KKL-1251] | 9%
COc1ccc(NCc2cc3ccc(SC)cc3nc2O)c(OC)c1 [KKL-1197] | 0%
CCCOc1ccc(N2CC(C(=O)Nc3cc(C)ccn3)CC2=O)cc1 (stereo not drawn) [KKL-0689] | 0%
CCc1nc2ccccc2n1CC(O)COc1cc(C)ccc1Cl (stereo not drawn) [KKL-1822] | 0%
Nc1nc(N)c2c(Sc3ccc4ccccc4c3)cccc2n1 [KKL-1710] | 0%
COC(=O)CSc1nnc(NC(=O)c2ccc(C(C)(C)C)cc2)s1 [KKL-0732] | 0%
O=[N+]([O-])c1ccc(N2CCN(CCO)CC2)cc1NCCOc1cccc2ccccc12 [KKL-0869] | 0%
CCOC(=O)c1c(-c2ccccc2)csc1NC(=O)c1cc2ccccc2oc1=O [KKL-1086] | 10%
O=C(Nc1cccc(Br)c1)c1ccc(-c2ccc(Cl)cc2)o1 [KKL-1279] | 0%
CNc1nc(SC)nnc1-c1cccc(Cl)c1Cl [KKL-1758] | 0%
COC(=O)c1ccc(-c2noc(CN3CCCC(c4nc5ccccc5o4)C3)n2)cc1 (stereo not drawn) [KKL-0492] | 3%
COC(=O)Cc1c(C)c2ccc(OCC(=O)OCc3ccccc3)c(C)c2oc1=O [KKL-1551] | 4%
O=C(N[C@H]1CC[C@]2(CC1)CC(=O)c1ccccc1O2)c1cc2ccccc2o1 [KKL-1190] | 0%
CC(C)(C)c1ccc(C(=O)NC(=S)N2CCCC2)cc1 [KKL-1436] | 12%
COc1ccccc1C1=Nc2cccc3cccc(c23)N1 [KKL-0723] | 0%
O=C(CC12CC3CC(CC(C3)C1)C2)NC(=S)Nc1ccc(-c2nc3ccccc3[nH]2)cc1 [KKL-1301] | 0%
O=C(CC12CC3CC(CC(C3)C1)C2)Nc1cccc(C(F)(F)F)c1 [KKL-1282] | 0%
COC(=O)c1ccc2nc(C)cc(Nc3ccc(OCc4ccccc4)cc3)c2c1 [KKL-1102] | 0%
COC(=O)c1ccc(C(=O)NC2CC(C)(C)Cc3c2cnn3-c2ccc(F)cc2)nc1 (stereo not drawn) [KKL-1173] | 6%
N#CCCN(Cc1ccccc1)C(=S)NC(=O)c1ccccc1 [KKL-0582] | 14%

SMILES | % activation
CCOc1ccc(CN2CCN(CC(O)Cn3c4ccccc4c4ccccc43)CC2)cc1 (stereo not drawn) [KKL-1098] | 0%
O=C(Nc1ccn(Cc2ccc(Cl)cc2)n1)c1ccc2c(c1)OCO2 [KKL-0566] | 0%
O=C(Cn1cccc2cc(-c3ccco3)nc1-2)NCCOc1ccccc1 [KKL-0462] | 4%
COC(=O)[C@@H]1Cc2c([nH]c3ccccc23)[C@H]2C[C@@H](NCCO)C[C@@H](c3ccc(-c4ccccc4)cc3)N21 [KKL-1602] | 0%
CSc1ncc(C(=O)Nc2ccc3[nH]c4c(c3c2)CCCC4)cn1 [KKL-0710] | 0%
Cc1ccc(Nc2c(-c3ccccn3)nc3cc(C)ccn23)cc1 [KKL-1523] | 0%
Cc1cc(C)c2[nH]c3ccccc3c2n1 [KKL-1375] | 0%
CCOC(=O)CSc1ccc(-c2nc3cc(C)c(C)cc3[nH]2)cn1 [KKL-1664] | 0%
CC1CC1c1ccc(CN2CCc3nc(Nc4ccccc4)sc3CC2)o1 (stereo not drawn) [KKL-1777] | 0%
CCC(CC)c1cc([C@H]2CN3CC[C@H]2C[C@@H]3CNCc2ccc(CO)o2)nc(-c2ccncc2)n1 [KKL-1592] | 0%
CC(C)(C)c1cnc(NC(=O)c2ccccc2O)s1 [KKL-1388] | 0%
Cc1ccn2c(-c3csc(Nc4ccccn4)n3)c(C)nc2c1 [KKL-0773] | 0%
CC(=O)N1CC2(CCN(C(=O)CCc3nc4ccccc4oc3=O)CC2)Nc2ccccc21 [KKL-1234] | 2%
c1ccc(-c2nc(NCCCn3ccnc3)c3oc4ccccc4c3n2)cc1 [KKL-0999] | 6%
O=C(NC(=S)Nc1ccccc1N1CCCC1)c1cccc2ccccc12 [KKL-1488] | 12%
COc1ccc(CNC(=O)c2c(C)nc3ccccn23)cc1 [KKL-1644] | 0%
Cc1ccc2c(c1)c(=O)cc(C(F)(F)F)n2CCNC(=O)c1ccccn1 [KKL-1728] | 0%
Cc1cc(Oc2ccc(N(C)C)cc2)cc(C2CCCN(C(=O)c3cc(C4CC4)on3)C2)n1 (stereo not drawn) [KKL-1227] | 0%
CCOC(=O)c1cccc(NC(=O)C(Cl)Cl)c1 [KKL-0726] | 0%
Cc1nn(-c2ccc(F)cc2)c2nc(O)c(CNCc3ccccc3F)cc12 [KKL-0342] | 0%
CCc1ccc(NC(=O)c2cnc(N3CCN(c4ccccn4)CC3)c3ccccc23)cc1 [KKL-1597] | 4%
CCOC(=O)COc1ccc2c(=O)c(-c3ccccc3F)coc2c1C [KKL-1532] | 0%

An excerpt from above in order of heavy-atom count, low to high.
SMILES | % activation
CC(C)(C)c1cnc(NC(=O)c2ccccc2O)s1 [KKL-1388] | 0%
Cc1ccn2c(-c3csc(Nc4ccccn4)n3)c(C)nc2c1 [KKL-0773] | 0%
O=C(Nc1ccn(Cc2ccc(Cl)cc2)n1)c1ccc2c(c1)OCO2 [KKL-0566] | 0%

The list continues.

SMILES | % activation
O=C(NC(Cc1ccccc1)C(=O)Nc1ccccc1N1CCOCC1)c1cccs1 (stereo not drawn) [KKL-1830] | 2%
COC(=O)CSc1nc(N2CCCCC2)c2c(c1C#N)CCCC2 [KKL-1493] | 0%
COc1ccc2nccc(NC(=O)C3CCN(CCc4ccc(Cl)cc4)CC3)c2n1 [KKL-1814] | 1%
Cc1cccc(Nc2nc(N)nc(CN3CCN(c4cccc(Cl)c4)CC3)n2)c1 [KKL-1055] | 0%
Cc1oc2c(c1C(=O)Nc1cccc3ccccc13)CCCC2 [KKL-1492] | 0%
COC(=O)C(C)Oc1ccc2c(=O)c(-c3ccc(Br)cc3)c(C)oc2c1 (stereo not drawn) [KKL-0414] | 9%
c1ccc(C[C@H]2CN(c3nccc(Oc4ccc(-n5ccnc5)cc4)n3)CCN2)cc1 [KKL-1739] | 4%
Clc1nc(NC2CC2)c2ccccc2n1 [KKL-1262] | 0%
Cc1c(Cl)ccc(OCCCN2CCCC(C)C2)c1C (stereo not drawn) [KKL-1427] | 0%
Cc1ccccc1OCCCON1C(=N)N=C(N)NC1(C)C [KKL-1698] | 11%
COC(=O)CSc1nnc(-c2ccc(OC)c(OC)c2)o1 [KKL-1665] | 0%
CCc1nc2sc3ccccc3c(=O)c2c(=O)n1Cc1ccc(OC)cc1 [KKL-0893] | 0%
CC(C(=O)OCc1ccccc1)n1cnc2scc(-c3ccc(Br)cc3)c2c1=O (stereo not drawn) [KKL-1313] | 0%
CC(=O)/C=C/c1ccc2ccccc2n1 [KKL-0886] | 0%
CCc1ccc(S(=O)(=O)Nc2cc(CN3CCN(CCC(C)C)CC3)ccc2C)cc1 [KKL-1849] | 4%
O=C(Nc1ccc2c(c1)CN(C(=O)/C=C/c1cccs1)CC2)c1ccccn1 [KKL-1112] | 0%
CCN(CC)c1ccc(NC(=O)c2ccc([N+](=O)[O-])o2)c(C)c1 [KKL-1330] | 0%
O=C(NCCc1ccc(Cl)cc1)c1ccc(CNc2c(N3CCOCC3)c(=O)c2=O)cc1 [KKL-1135] | 0%
CSc1nsc(SCC(=O)N2CCN(c3ccccc3)CC2)n1 [KKL-0572] | 0%
Cc1nn(-c2ccccc2)c(C)c1N1C(=O)c2cccc3cc([N+](=O)[O-])cc(c23)C1=O [KKL-1394] | 1%
COc1ccccc1-c1c(C)oc2cc(OCC(=O)OCc3ccccc3)ccc2c1=O [KKL-0426] | 0%
CCN(Cc1ccc2c(c1)OCO2)C(=O)CSc1nc(NC)c2ccccc2n1 [KKL-1804] | 1%

Four compounds drawn at random from those above:
SMILES | % activation
CC(C)COc1ccc(-c2nnn(CC(=O)Nc3ccc4c(c3)OCCO4)n2)cc1 [KKL-1251] | 9%
c1ccc(-c2nc(NCCCn3ccnc3)c3oc4ccccc4c3n2)cc1 [KKL-0999] | 6%
CCC(CC)c1cc([C@H]2CN3CC[C@H]2C[C@@H]3CNCc2ccc(CO)o2)nc(-c2ccncc2)n1 [KKL-1592] | 0%
N#CCCN(Cc1ccccc1)C(=S)NC(=O)c1ccccc1 [KKL-0582] | 14%

Going on with the list:

SMILES | % activation
Oc1ccccc1N=Cc1ccc[nH]1 [KKL-0874] | 4%
O=C(c1ccc(Cl)cc1)c1ccc(OCC(O)CN2CCN(Cc3ccccc3)CC2)cc1 (stereo not drawn) [KKL-1453] | 0%
c1ccc(SCc2nn3c(-c4ccccc4)nnc3s2)cc1 [KKL-1669] | 2%
O=C(Nc1ccc(Cl)cc1)Nc1ccc(F)c(F)c1 [KKL-1350] | 0%
C=CCSc1nnc(-c2ccc([N+](=O)[O-])cc2)o1 [KKL-1062] | 0%
CSc1ncc(C(=O)Nc2cccc(C(F)(F)F)c2)cn1 [KKL-0605] | 3%
CCOC(=O)COc1ccc2c3c(c(=O)oc2c1)CCCCC3 [KKL-1496] | 0%
O=S1(=O)CC(O)C(N2CCN(c3ccccc3Cl)CC2)C1 (stereo not drawn) [KKL-1794] | 6%
Cc1ccc(-c2csc(-c3ccc(O)cc3)n2)cc1 [KKL-0782] | 14%
CCCCCCn1c(=O)c(C(=O)Nc2nc(CC(=O)OCC)cs2)c(O)c2ccccc21 [KKL-0986] | 0%
O=C(NC(=S)N1CCCC1)c1ccc(-c2ccccc2)cc1 [KKL-1220] | 9%
Cc1ccc(-c2nnc3sc(Cc4ccccc4)nn23)cc1 [KKL-0615] | 0%
CCOC(=O)Cn1nnc(-c2ccc(OCc3ccccc3C)cc2)n1 [KKL-1542] | 0%
FC(F)(F)c1cc(SCc2ccccc2)nc(-c2ccccn2)n1 [KKL-1823] | 6%
COc1ccccc1/C=C/C(=O)Oc1cccc2cccnc12 [KKL-0360] | 0%
N=C(N)c1ccc(CCN2CCC(c3nc(COCC(F)(F)F)c(-c4ccc(F)cc4)o3)CC2)cc1 [KKL-1848] | 28%
O=C(CCCn1ccnc1)Nc1ncc(Cc2cccc(Cl)c2Cl)s1 [KKL-0941] | 0%
Cc1nc(SCc2csc(C)n2)c2c3c(sc2n1)CCCC3 [KKL-0287] | 0%
Cc1ccc(Nc2nc(NCc3ccco3)c3ccccc3n2)cc1 [KKL-0364] | 19%
O=C(c1ccc(Cl)cc1)C1CCCN(Cc2ccc3nonc3c2)C1 (stereo not drawn) [KKL-0479] | 0%
COc1ccc2nc(C)cc(OCC(=O)NCc3ccccc3)c2c1 [KKL-1765] | 39%
